Results are given in words; binding and its absence hold for the method and conditions named. For some of these results: In cells and extracts the contact can be indirect. Some entries that bind do so weakly or less than the wild type. For some of these results: Sequences can lack the tags named with a protein. Each block holds one molecule with its values, some of them ahead of it.
Key:
[1] = target: SPA-tagged Hnea CsoS2B (full length CsoS2 with C-terminal SPA tag, in HnSPAS2 mutant carboxysomes) (Halothiobacillus neapolitanus) (UniProt O85041); assay: co-IP; purified HnSPAS2 mutant carboxysomes bound to agarose beads conjugated with α-FLAG antibodies, eluted with 100 mM glycine buffer, pH 2.5; eluate analysed by SDS-PAGE and densitometry; the trapped carboxysomes were taken to be intact
[2] = target: T1, Hnea RuBisCO small subunit CbbS (yeast two-hybrid fusion) (Halothiobacillus neapolitanus) (UniProt P45686); assay: two-hybrid; Matchmaker GAL4 Two-Hybrid System 3, S. cerevisiae AH109; baits in pGBKT7, preys in pGADT7; MEL1 reporter (X-α-Gal) and growth without histidine with 10 mM 3-AT
T1 sequence: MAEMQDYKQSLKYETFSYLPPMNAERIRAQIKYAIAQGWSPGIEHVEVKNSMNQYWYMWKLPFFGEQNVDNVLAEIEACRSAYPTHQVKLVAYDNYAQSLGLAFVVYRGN

By UniProt entry, the sequences of proteins in these tests, tags left out. Where a name states a change or a piece, a line headed by the entry shows the natural chain unless it says otherwise.
UniProt O85040: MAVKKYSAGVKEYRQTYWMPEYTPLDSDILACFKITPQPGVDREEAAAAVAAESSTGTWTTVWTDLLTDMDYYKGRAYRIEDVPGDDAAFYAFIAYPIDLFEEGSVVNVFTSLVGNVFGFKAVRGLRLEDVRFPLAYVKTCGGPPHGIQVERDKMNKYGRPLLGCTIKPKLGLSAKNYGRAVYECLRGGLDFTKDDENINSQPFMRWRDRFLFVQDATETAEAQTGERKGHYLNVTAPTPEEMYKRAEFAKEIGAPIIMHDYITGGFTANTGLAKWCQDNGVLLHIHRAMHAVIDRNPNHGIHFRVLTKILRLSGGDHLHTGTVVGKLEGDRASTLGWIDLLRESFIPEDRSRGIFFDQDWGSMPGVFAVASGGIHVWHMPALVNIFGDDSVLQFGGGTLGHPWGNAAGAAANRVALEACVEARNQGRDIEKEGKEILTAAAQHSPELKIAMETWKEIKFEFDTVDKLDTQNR

[3] = target: T2, Hnea CsoS1C (yeast two-hybrid fusion) (Halothiobacillus neapolitanus) (UniProt P45688); assay: as above
T2 sequence: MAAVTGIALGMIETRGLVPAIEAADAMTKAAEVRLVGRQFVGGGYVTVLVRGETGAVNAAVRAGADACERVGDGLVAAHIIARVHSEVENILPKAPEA

[4] = target: Hnea CsoS2 (yeast two-hybrid fusion) (Halothiobacillus neapolitanus) (UniProt O85041); assay: as above
[5] = target: T3, Hnea CsoS4B (yeast two-hybrid fusion) (Halothiobacillus neapolitanus) (UniProt O85044); assay: as above
T3 sequence: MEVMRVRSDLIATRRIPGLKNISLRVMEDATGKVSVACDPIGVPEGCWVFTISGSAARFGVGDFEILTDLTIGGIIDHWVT

[6] = target: T4, SPA-tagged Hnea CsoS2B (full length CsoS2 with C-terminal SPA tag, in HnSPAS2 mutant carboxysomes) (Halothiobacillus neapolitanus), O85041; assay: co-IP; purified HnSPAS2 mutant carboxysomes bound to agarose beads conjugated with α-FLAG antibodies, eluted with 100 mM glycine buffer, pH 2.5; eluate analysed by SDS-PAGE and densitometry; the trapped carboxysomes were taken to be intact; details: remark: other sources report otherwise
T4 chain: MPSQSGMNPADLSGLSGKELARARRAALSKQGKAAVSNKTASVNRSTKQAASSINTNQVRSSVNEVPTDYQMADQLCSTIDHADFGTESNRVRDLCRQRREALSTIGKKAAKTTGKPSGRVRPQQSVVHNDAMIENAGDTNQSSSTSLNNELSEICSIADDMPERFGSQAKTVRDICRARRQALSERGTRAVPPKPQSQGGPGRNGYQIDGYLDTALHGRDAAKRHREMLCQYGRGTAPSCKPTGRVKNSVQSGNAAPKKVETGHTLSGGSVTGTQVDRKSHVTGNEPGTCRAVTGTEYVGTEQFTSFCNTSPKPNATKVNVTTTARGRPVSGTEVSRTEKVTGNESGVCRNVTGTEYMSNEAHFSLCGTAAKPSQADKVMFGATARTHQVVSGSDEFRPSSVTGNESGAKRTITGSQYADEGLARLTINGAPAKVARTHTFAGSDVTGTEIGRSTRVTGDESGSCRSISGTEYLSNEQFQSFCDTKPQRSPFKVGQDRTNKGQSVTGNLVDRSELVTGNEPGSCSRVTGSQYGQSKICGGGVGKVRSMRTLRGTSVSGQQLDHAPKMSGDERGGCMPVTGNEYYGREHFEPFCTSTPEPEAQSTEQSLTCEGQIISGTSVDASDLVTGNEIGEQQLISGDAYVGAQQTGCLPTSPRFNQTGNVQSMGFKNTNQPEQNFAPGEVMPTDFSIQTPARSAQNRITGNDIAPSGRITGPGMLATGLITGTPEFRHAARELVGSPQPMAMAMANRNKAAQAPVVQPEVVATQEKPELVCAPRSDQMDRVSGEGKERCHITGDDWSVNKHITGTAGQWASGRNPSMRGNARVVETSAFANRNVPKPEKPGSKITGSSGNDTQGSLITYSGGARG

binding [1]: binds
Molecule: Hnea RuBisCO (L8S8 holoenzyme) (from UniProt O85040 1-473; P45686 1-110) (complex)

binding [2]: binds | binding [3]: binds | binding [4]: binds | binding [5]: binds
Molecule: Hnea CsoS2 (yeast two-hybrid fusion) (from UniProt O85041 1-869)

binding [6]: binds
B1: Hnea CsoSCA (carboxysomal carbonic anhydrase, product of csoS3), O85042 1-514 (enzyme)
chain: MNTRNTRSKQRAPFGVSSSVKPRLDLIEQAPNPAYDRHPACITLPERTCRHPLTDLEANEQLGRCEDSVKNRFDRVIPFLQVVAGIPLGLDYVTRVQELAQSSLGHTLPEELLKDNWISGHNLKGIFGYATAKALTAATEQFSRKIMSEKDDSASAIGFFLDCGFHAVDISPCADGRLKGLLPYILRLPLTAFTYRKAYAGSMFDIEDDLAQWEKNELRRYREGVPNTADQPTRYLKIAVYHFSTSDPTHSGCAAHGSNDRAALEAALTQLMKFREAVENAHCCGASIDILLIGVDTDTDAIRVHIPDSKGFLNPYRYVDNTVTYAQTLHLAPDEARVIIHEAILNANRSDGWAKGNGVASEGMRRFIGQLLINNLSQIDYVVNRHGGRYPPNDIGHAERYISVGDGFDEVQIRNLAYYAHLDTVEENAIDVDVGIKIFTKLNLSRGLPIPIAIHYRYDPNVPGSRERTVVKARRIYNAIKERFSSLDEQNLLQFRLSVQAQDIGSPIEEVASA

binding [1]: binds
B2: Hnea CsoS1B (protein, UniProt P45690 1-110)
chain: MATTHGIALGMIETRGLVPAIEAADAMTKAAEVRLVGRSFVGGGYVTVMVRGETGAVNAAVRAGADACERVGDGLVAAHIIARVHSEVEIILPETPEDSDSAWCIANLNS
